# Patent publication CN115772220A
# Protein sequences, listed by entry. Tags and fused reporters are not part of them. Residues count along the entry.
# UniProt P01584, residues 117-269: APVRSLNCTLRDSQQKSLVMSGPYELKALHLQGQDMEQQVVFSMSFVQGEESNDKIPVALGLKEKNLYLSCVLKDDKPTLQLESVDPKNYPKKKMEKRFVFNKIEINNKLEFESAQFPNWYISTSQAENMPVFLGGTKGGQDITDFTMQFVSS
# These are yes or no findings as the source states them, for the method shown. Some entries that bind do so weakly or less than the wild type.
# B1: 兔单克隆抗体10A10 (rabbit monoclonal antibody 10A10 against human IL-1β) (antibody, V domains shown)
# VH: QSVEESGGRLVTPGTPLTLTCTVSGFSLSTYAMSWVRQAPGKGLEWIGIISGSGNTAYASWAKGRFTISKTSTTVDLKMTSPTTEDTATYFCARSYEDYANIWGPGTLVTVSS
# VL: AQVLTQTPSSVSAAVGGTVTINCQASQSLYNNNELSWYQQKPGQPPKLLIYKASTLASGVSSRFKGSGSGTQFTLTISGVQCDDAATYYCQGDYSCRIADCYAFGGGTEVVVKG
# Target: 重组人白介素-1β，R&D货号:840170 (recombinant human IL-1β standard of the sandwich ELISA) (human) (UniProt P01584)
# Experiment: double-antibody sandwich ELISA, 10A10 capture and 1F3-biotin detection, human IL-1β at 100pg/mL
binder,measurement,value
B1,binding,binds
